Test results: PMC9515098
These are yes or no findings as the source states them, for the method shown. Some entries that bind do so weakly or less than the wild type.

Sequences of proteins named here, by UniProt entry; tags and fusion partners are left off.
UniProt Q8GXE6: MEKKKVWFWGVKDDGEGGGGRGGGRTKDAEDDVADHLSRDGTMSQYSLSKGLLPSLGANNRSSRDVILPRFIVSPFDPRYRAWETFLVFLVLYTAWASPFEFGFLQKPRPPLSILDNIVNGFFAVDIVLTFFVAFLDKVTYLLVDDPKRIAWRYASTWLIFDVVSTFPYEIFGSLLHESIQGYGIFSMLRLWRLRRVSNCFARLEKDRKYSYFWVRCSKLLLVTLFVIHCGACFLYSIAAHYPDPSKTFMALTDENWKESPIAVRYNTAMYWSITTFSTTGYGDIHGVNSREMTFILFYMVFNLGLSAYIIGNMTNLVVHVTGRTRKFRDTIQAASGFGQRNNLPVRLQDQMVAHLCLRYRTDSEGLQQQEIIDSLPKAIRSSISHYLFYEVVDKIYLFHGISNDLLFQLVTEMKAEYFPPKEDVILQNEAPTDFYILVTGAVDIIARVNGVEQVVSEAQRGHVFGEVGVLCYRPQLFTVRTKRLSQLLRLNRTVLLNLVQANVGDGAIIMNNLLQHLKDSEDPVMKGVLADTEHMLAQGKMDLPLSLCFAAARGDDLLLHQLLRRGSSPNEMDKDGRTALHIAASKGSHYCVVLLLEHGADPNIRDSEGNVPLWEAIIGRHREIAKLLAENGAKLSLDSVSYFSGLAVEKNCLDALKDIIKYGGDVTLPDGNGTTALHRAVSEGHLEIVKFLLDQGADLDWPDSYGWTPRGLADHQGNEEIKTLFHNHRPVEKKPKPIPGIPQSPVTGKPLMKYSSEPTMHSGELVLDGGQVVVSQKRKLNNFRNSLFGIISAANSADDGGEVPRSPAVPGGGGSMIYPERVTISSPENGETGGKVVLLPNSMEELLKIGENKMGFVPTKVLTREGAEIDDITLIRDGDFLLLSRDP
UniProt Q38998: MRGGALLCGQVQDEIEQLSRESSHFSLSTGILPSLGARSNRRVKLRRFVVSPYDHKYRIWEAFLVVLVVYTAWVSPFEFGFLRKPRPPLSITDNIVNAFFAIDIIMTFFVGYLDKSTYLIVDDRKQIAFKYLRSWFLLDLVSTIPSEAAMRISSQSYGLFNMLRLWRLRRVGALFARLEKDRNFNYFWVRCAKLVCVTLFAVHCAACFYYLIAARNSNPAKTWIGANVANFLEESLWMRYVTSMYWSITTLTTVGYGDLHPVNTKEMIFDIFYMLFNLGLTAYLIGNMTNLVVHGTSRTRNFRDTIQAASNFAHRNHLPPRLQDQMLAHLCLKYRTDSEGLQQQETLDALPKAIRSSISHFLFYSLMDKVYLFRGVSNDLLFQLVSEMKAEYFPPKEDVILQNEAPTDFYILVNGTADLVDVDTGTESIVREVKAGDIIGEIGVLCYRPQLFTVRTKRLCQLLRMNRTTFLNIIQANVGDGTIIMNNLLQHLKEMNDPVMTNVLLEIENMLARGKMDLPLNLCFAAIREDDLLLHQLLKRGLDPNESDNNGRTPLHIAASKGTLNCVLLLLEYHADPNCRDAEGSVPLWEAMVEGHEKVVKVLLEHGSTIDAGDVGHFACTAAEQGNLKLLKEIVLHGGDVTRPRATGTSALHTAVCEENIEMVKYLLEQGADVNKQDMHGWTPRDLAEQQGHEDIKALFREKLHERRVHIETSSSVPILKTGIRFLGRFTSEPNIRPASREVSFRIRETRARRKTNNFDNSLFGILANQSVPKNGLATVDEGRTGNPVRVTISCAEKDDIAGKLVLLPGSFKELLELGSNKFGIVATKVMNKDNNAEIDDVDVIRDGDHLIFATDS
UniProt P92960: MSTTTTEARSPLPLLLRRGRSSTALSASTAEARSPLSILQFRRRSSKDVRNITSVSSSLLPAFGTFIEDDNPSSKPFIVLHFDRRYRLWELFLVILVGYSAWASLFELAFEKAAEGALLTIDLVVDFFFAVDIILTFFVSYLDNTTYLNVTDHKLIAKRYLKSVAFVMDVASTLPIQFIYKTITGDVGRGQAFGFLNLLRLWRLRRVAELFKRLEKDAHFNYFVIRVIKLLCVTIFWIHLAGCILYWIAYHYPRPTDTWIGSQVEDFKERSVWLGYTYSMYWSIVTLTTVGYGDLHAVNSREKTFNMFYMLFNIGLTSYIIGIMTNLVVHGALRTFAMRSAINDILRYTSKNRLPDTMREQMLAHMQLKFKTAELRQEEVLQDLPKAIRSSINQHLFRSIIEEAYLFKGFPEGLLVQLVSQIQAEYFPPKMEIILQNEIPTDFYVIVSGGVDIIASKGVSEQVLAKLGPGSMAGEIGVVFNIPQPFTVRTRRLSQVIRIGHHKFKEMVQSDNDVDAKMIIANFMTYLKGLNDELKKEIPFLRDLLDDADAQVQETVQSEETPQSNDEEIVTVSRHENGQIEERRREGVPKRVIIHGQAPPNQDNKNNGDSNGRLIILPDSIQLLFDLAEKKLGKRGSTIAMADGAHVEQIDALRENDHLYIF

Assays:
[1] = molecular target: AKT6 (SPIK), Arabidopsis potassium channel (Arabidopsis) (UniProt Q8GXE6); assay: cryo-EM structure; cryo-EM, 2D classification only (preliminary analysis); no map or model reported; both purified
[2] = molecular target: Full-length Arabidopsis thaliana AKT1 with N-terminal Flag (pCAG, HEK293F), co-expressed with AtKC1 (Arabidopsis thaliana) (UniProt Q38998); assay: cryo-EM structure; single-particle cryo-EM of the AKT1-AtKC1 complex co-expressed in HEK293F cells and purified by Flag then Strep affinity; 25 mM Tris-HCl pH 7.4, 150 mM KCl, 0.06% digitonin; both purified

binding [1]	binding [2]	Substance
binds	–	AKT6 (SPIK), Arabidopsis potassium channel (from UniProt Q8GXE6 1-888)
–	binds	Full-length AtKC1, potassium channel alpha-subunit, with N-terminal Twin-Strep (pCAG, HEK293F) (from UniProt P92960 1-662)
